In US8158587B2 (Kyushu Institute of Technology, priority 2006, dated 2012) one finds step yield and cyclisation yield data, which are given here for 37 substances.

Some peptides are written in HELM: one residue between dots, names in brackets for other building blocks, links after the first $.

This series can be described thus: general procedure: solution-phase peptide synthesis; HATU/diisopropylethylamine (cyclization). The conditions noted are these: for cyclisation yield: cyclisation step.
[1] abbreviates: late stage modification step, TFA salt.

In turn, cyclo(-L-Ae9(Dmamk)-Aib-L-Phe-D-Pro-) returned a step yield (late stage modification step) of 68%.
As to cyclo(-L-Ae9(Actmk)-Aib-L-Phe-D-Pro-), the step yield (late stage modification step) was 79%.
cyclo(-L-Ae9(Tfemk)-Aib-L-Phe-D-Pro-): the step yield (late stage modification step) was found to be 93%.
cyclo(-L-Ae9(Bmk)-Aib-L-Phe-D-Pro-) yielded a step yield (late stage modification step) of 89%.
The same measure, in the same setting: the figure for “cyclo(-L-Am7(methoxyacetonyl)-Aib-L-Phe-D-Pro-)” is 72%; for “cyclo(-L-Ae9(8-OH,9-Br)-Aib-L-Phe-D-Pro-)” it is 93%; for “cyclo(-L-Ae9 (8-OH,9-OCH3)-Aib-L-Phe-D-Pro-)” it is 68%.
Same read-out and setting: next, “PEPTIDE1{[Am5(trifluoroacetonyl)].[Aib].F.[dP]}$PEPTIDE1,PEPTIDE1,1:R1-4:R2$$$V2.0”: 54%; “cyclo(-L-Am8(1,1,1-trifluoroacetonyl)-Aib-L-Phe-D-Pro-)”: 48%.
As for Boc-L-Ae9-Aib-L-Phe-D-Pro-OtBu, the step yield (coupling step) is given as 94%.
Regarding cyclo(-L-Ae9(Mtmk)-Aib-L-Phe-D-Pro-), where the note is “late stage modification step”, the step yield is 87%.
In the case of cyclo(-L-Ae9(O)-Aib-L-Phe-D-Pro-), the step yield (late stage modification step) is 89%.
On the same count and under the same terms, next, “cyclo(-L-Am7(acetonyl)-Aib-L-Phe-D-Pro-)”: 59%.
The same measure, in the same setting: next, “cyclo(-L-Am7(glycidyl)-Aib-L-Phe-D-Pro-)”: 78%; “PEPTIDE1{[Am7(methyl)].[Aib].F.[dP]}$PEPTIDE1,PEPTIDE1,1:R1-4:R2$$$V2.0”: 72%; “cyclo(-L-Ah7(glycidyl)-Aib-L-Phe-D-Pro-)”: 47%.
Same read-out and setting: next, “cyclo(-L-Am7(CH2CH(OH)OCH3)-Aib-L-Phe-D-Pro-)”: 90%.
“cyclo(-L-Am7(1,1,1-trifluoroacetonyl)-Aib-L-Phe-D-Pro-)” gave a step yield (late stage modification step) of 54%.
The same measure, in the same setting: the figure for “cyclo(-L-Am7(acetonyl,sulfoxide)-Aib-L-Phe-D-Pro-)” is 43%.
Under “coupling step”, Boc-L-Ah7(allyl)-Aib-L-Phe-D-Pro-OtBu returned a step yield of 35%.
“PEPTIDE1{[Ae9].[Aib].F.[dP]}$PEPTIDE1,PEPTIDE1,1:R1-4:R2$$$V2.0” had a cyclisation yield of 87%. Also, the step yield under setting [1] turned out to be 100%.
“cyclo(-L-Ae9 (8-OH,9-OCH2CF3)-Aib-L-Phe-D-Pro-)” displayed a step yield (late stage modification step) of 75%.
Still for that read-out and setting: next, “cyclo(-L-Am7(2-pyridylmethyl,sulfoxide)-Aib-L-Phe-D-Pro-)”: 45%.
Still for that read-out and setting: the figure for “PEPTIDE1{[Ah7(acetonyl)].[Aib].F.[dP]}$PEPTIDE1,PEPTIDE1,1:R1-4:R2$$$V2.0” is 48%.
“cyclo(-L-Ah7(CH2CH(OH)CH2Br)-Aib-L-Phe-D-Pro-)” had a step yield (late stage modification step) of 91%.
Same read-out and setting: next, “cyclo(-L-Ae9 (8-OH,9-OCH2CH3)-Aib-L-Phe-D-Pro-)”: 70%.
As for “cyclo(-L-Am7(2-pyridylmethylthio ether)-Aib-L-Phe-D-Pro-)”, where the note is “late stage modification step”, the step yield was 51%.
As for cyclo(-L-Ah7 (allyl)-Aib-L-Phe-D-Pro-), the cyclisation yield was 49%.
Take “cyclo(-L-Am7(3-pyridylmethyl)-Aib-L-Phe-D-Pro-)”: the step yield (late stage modification step) worked out at 58%.
On the same count and under the same terms, next, “PEPTIDE1{[Am7(trifluoroacetonyl,sulfoxide)].[Aib].F.[dP]}$PEPTIDE1,PEPTIDE1,1:R1-4:R2$$$V2.0”: 44%; “cyclo(-L-Ah7 (CH2COCH2Br)-Aib-L-Phe-D-Pro-)”: 73%.
H-L-Ah7(allyl)-Aib-L-Phe-D-Pro-OH-TFA: the step yield under setting [1] stood at 80%.
Where the note is “late stage modification step”, cyclo(-L-Am7(benzyl)-Aib-L-Phe-D-Pro-) yielded a step yield of 63%.
Still for that read-out and setting: next, cyclo(-L-Ae9(Mmk)-Aib-L-Phe-D-Pro-): 85%; “cyclo(-L-Am6(1,1,1-trifluoroacetonyl)-Aib-L-Phe-D-Pro-)”: 47%; cyclo(-L-Ae9(Emk)-Aib-L-Phe-D-Pro-): 93%.
The same measure, in the same setting: next, “cyclo(-L-Am7(4-pyridylmethyl)-Aib-L-Phe-D-Pro-)”: 44%.
